Assay results reported in patent publication US20260258351A1, “METHOD FOR DIFFERENTIATING VISCERAL SENSORY NEURONS FROM HUMAN INDUCED PLURIPOTENT STEM CELLS” (SEOUL NATIONAL UNIVERSITY R&DB FOUNDATION, priority 2022, published 2026).
At least one structure is not confirmed: it was looked up by name or label, or the drawing left a doubt.

System: induced-Visceral sensory neurons (i-VSN)
Experiment: Live cell calcium imaging of induced-Visceral sensory neurons after compound treatment
Assay type: cell-based, human
Conditions: real-time calcium imaging, FLIPR Calcium 6 Assay Kit, FIGS. 7a-7f
Method: For Live cell calcium imaging, the FLIPR Calcium 6 Assay Kit ([…], Molecular Devices) was used. The overall steps were performed according to the manufacturer's protocol. The test solution, in which components A and B were mixed, was incubated in an incubator at 37° C. for 2 hours, and during this process, the carbon dioxide concentration was maintained at 5%. Then, after treatment with a fluorescent substance, the fluorescence signal was detected for 5 minutes using an EVOS live imaging system (Thermo-Fisher) capable of maintaining a temperature of 37° C., a 5% carbon dioxide concentration, and 80% humidity. The detected signals were obtained by video or continuous snapshots (once per second). In order to confirm the functional aspect of the induced Visceral sensory neurons, the changes in the activity of the neurons were measured using a real-time calcium imaging technique after treating the Visceral sensory neurons with various compounds known to stimulate the same. A total of three compounds (i.e., liraglutide, CCK-8, and capsaicin) were used. Liraglutide corresponds to an agonist of GLP1R and is known to activate the nodose ganglion. […] CCK-8 is an agonist of the CCK receptor and is known to be able to stimulate the nodose ganglion as well. […] Capsaicin is a compound that has excitotoxicity toward TRPV1 and is known to detect pain and heat sensations in the nodose ganglion. […]

## CCCCCCCCCCCCCCCC(=O)N[C@@H](CCC(=O)NCCCC[C@H](NC(=O)[C@H](C)NC(=O)[C@H](C)NC(=O)[C@H](CCC(N)=O)NC(=O)CNC(=O)[C@H](CCC(=O)O)NC(=O)[C@H](CC(C)C)NC(=O)[C@H](Cc1ccc(O)cc1)NC(=O)[C@H](CO)NC(=O)[C@H](CO)NC(=O)[C@@H](NC(=O)[C@H](CC(=O)O)NC(=O)[C@H](CO)NC(=O)[C@@H](NC(=O)[C@H](Cc1ccccc1)NC(=O)[C@@H](NC(=O)CNC(=O)[C@H](CCC(=O)O)NC(=O)[C@H](C)NC(=O)[C@@H](N)Cc1cnc[nH]1)[C@@H](C)O)[C@@H](C)O)C(C)C)C(=O)N[C@@H](CCC(=O)O)C(=O)N[C@@H](Cc1ccccc1)C(=O)N[C@H](C(=O)N[C@@H](C)C(=O)N[C@@H](Cc1c[nH]c2ccccc12)C(=O)N[C@@H](CC(C)C)C(=O)N[C@H](C(=O)N[C@@H](CCCNC(=N)N)C(=O)NCC(=O)N[C@@H](CCCNC(=N)N)C(=O)NCC(=O)O)C(C)C)[C@@H](C)CC)C(=O)O [liraglutide]
  change in neuron activity (calcium signal) after treatment: calcium signals were amplified
